# Primary screen of a compound library

Values are the deposited “Percent Effect”, in %.
The record does not define 0% and 100%; most values in the screen are far below 50% and negative numbers occur (in some assays of this library far below -100).
This is an unselected part of the compounds tested.

Mtb growth Cornell: 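Whole-cell assay for inhibitors of Mycobacterium tuberculosis growth, labelled Cornell in the record; the read-out is not stated. The concentration is filed as 10 mM, unlikely as a test dose, so the dose is not known. The record gives no direction; compounds strong in two other growth screens of this library score well above the rest, so higher reads as stronger inhibition. Of about 53,000 compounds tested this way, about 900 (1.7%) reached 50% or more in at least one test.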
Mtb heat-shock: 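Assay on Mycobacterium tuberculosis, filed only as a heat shock assay from Cornell; the read-out is not stated. The concentration is filed as 10 mM, unlikely as a test dose, so the dose is not known. The record gives no direction; compounds that gave an IC50 in retests scored well above the rest, so higher reads as stronger inhibition. Size under these conditions: about 69,000 compounds, about 930 of them at 50% or above in at least one test.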

For CC(C)OCCNC1(c2ccc(F)cc2)CCOCC1 the result was Mtb growth Cornell: 24.9%; Mtb heat-shock: -5.532%.
For CC(C)OCc1ccccc1CNC(=O)C(C)S(=O)(=O)C(C)C (stereo not shown) the result was Mtb growth Cornell: 9.96%; Mtb heat-shock: 10.03%.
For [H][C@]12CCN(C(=O)C3CCCO3)CC[C@@]1([H])S(=O)(=O)N(CC)C2 (stereo partly shown) the result was Mtb growth Cornell: 29.95%; Mtb heat-shock: -9.162%.
For COCCn1cncc1Cn1ncc2ccccc2c1=O the result was Mtb heat-shock: -21.03%.
For CCc1cnc(N2CCc3cc(C(=O)NC)c(N(C)C)nc3CC2)nc1.O=C(O)C(F)(F)F the result was Mtb growth Cornell: 10.06%; Mtb heat-shock: 23.07%.
For CCC(C)[C@H](N)c1nnc(SCC(=O)Nc2ccc(Br)cc2)o1.Cl (stereo partly shown) the result was Mtb growth Cornell: -1.827%; Mtb heat-shock: -9.343%.
For CN1CCN(C(=O)c2cccs2)Cc2ccccc21 the result was Mtb growth Cornell: 18.15%; Mtb heat-shock: 1.294%.
For COc1ccc(CN2CC[C@H](NC(C)=O)[C@@H](O)CC2)c(OC)c1 the result was Mtb growth Cornell: -4.822%; Mtb heat-shock: -3.989%.
For COCCN(Cc1ccncc1)C(=O)CCSCc1ccc(F)cc1 the result was Mtb growth Cornell: 4.911%; Mtb heat-shock: -6.215%.
For CCOc1ccccc1-c1noc(CN2CC(n3cccn3)C2)n1 the result was Mtb heat-shock: -17.07%.
For Cc1ccc(N2CCC3(CCN(C(N)=O)CC3)CC2)nn1 the result was Mtb growth Cornell: -3.429%; Mtb heat-shock: 6.897%.
For O=C(c1ccccc1)N1CCC2(CC1)CC(Oc1ccccc1)CO2 (stereo not shown) the result was Mtb growth Cornell: -18.24%; Mtb heat-shock: -30.57%.
For CC(=O)NC1CCN(c2c(C#N)cnc3c(C)cc(F)cc23)CC1 the result was Mtb heat-shock: -14.77%.
For CCOC(=O)NCCC(=O)NCc1ccc(Oc2ccc(F)cc2)nc1 the result was Mtb heat-shock: -8.255%.
For Cc1cc(C(=O)NCc2cccs2)nc(N2CCCC2)n1 the result was Mtb heat-shock: 11.15%.
For O=C(C1CCC2(CCN(c3nncs3)CC2)CO1)N1CCCC1.O=C(O)C(F)(F)F (stereo not shown) the result was Mtb growth Cornell: 9.831%; Mtb heat-shock: -11.41%.
For O=C(O)C(F)(F)F.O=C(c1c[nH]cn1)N1CCC(F)(F)C2(CCN(c3cccc(F)c3)C2)C1 (stereo not shown) the result was Mtb growth Cornell: -1.439%; Mtb heat-shock: 53.67%.
For COc1ccc(CCNC(=O)NCc2cccc(C(N)=O)c2)cc1OC the result was Mtb growth Cornell: -28.09%; Mtb heat-shock: -9.355%.
For CC(=O)N1CCC(Cc2cnc(-n3ccnc3)cn2)CC1 the result was Mtb growth Cornell: -13.44%; Mtb heat-shock: -6.317%.
For O=C(O)C(F)(F)F.O=C(O)c1cc2c(nc1-c1ccsc1)CCN(C(=O)C1CC1)CC2 the result was Mtb growth Cornell: 22.02%; Mtb heat-shock: -26.46%.
For CC(=O)c1ccc(N2CCC(CO)(CCOc3ccccc3)CC2)nc1 the result was Mtb growth Cornell: 8.396%; Mtb heat-shock: -0.8664%.
For O=C(Nc1ccc(F)c(Br)c1)N1CCCC1 the result was Mtb growth Cornell: 21.01%; Mtb heat-shock: 35.87%.
For CCOc1ccc(NC(=O)NCCS(=O)(=O)CC)cc1C the result was Mtb growth Cornell: 60.38%; Mtb heat-shock: -18.32%.
For COC(CNC(=O)C1CC1)c1ccc(C)s1 (stereo not shown) the result was Mtb growth Cornell: -22.3%; Mtb heat-shock: -0.8786%.
For CCc1cnc(N)nc1NC(C)c1cnn(C)c1 (stereo not shown) the result was Mtb growth Cornell: 9.295%; Mtb heat-shock: -5.78%.
For CCn1ncc2[nH]c(-c3cc4c(cc3OC)OCO4)nc21 the result was Mtb growth Cornell: 20.51%; Mtb heat-shock: -18.32%.
For O=C(NCC1CC1)C1CCC2(CCN(C(=O)c3cccnc3)CC2)O1.O=C(O)C(F)(F)F (stereo not shown) the result was Mtb growth Cornell: 9.486%; Mtb heat-shock: -0.3502%.
For CC(C)(O)c1cn(C2CCN(C(=O)CCc3ccncc3)CC2)nn1 the result was Mtb growth Cornell: 5.438%; Mtb heat-shock: -0.5475%.
For Cc1cc(C)c(N(CC(O)CNCc2ccco2)S(C)(=O)=O)c(C)c1.O=C(O)c1ccccc1 (stereo not shown) the result was Mtb growth Cornell: -0.008828%; Mtb heat-shock: 18.07%.

For reference, 3 entries once more:

With CC(=O)N1CCC(Cc2cnc(-n3ccnc3)cn2)CC1 the screen gave Mtb growth Cornell: -13.44%; Mtb heat-shock: -6.317%.
With CN1CCN(C(=O)c2cccs2)Cc2ccccc21 the screen gave Mtb growth Cornell: 18.15%; Mtb heat-shock: 1.294%.
With CCC(C)[C@H](N)c1nnc(SCC(=O)Nc2ccc(Br)cc2)o1.Cl (stereo partly shown) the screen gave Mtb growth Cornell: -1.827%; Mtb heat-shock: -9.343%.

Measurements from “University of Dundee, Small-Polar-MMV Screening Library” (2021), ChEMBL document CHEMBL3988442.